These are yes or no findings as the source states them, for the method shown. Binding seen in cells or lysates may run through a third protein. A result given as binding can be weak or reduced; the word gives no strength. Tags and fused reporters may be left off the sequences shown.
Biological target: AtSK31, GFP-tagged (Arabidopsis thaliana)
Assay: co-IP

binding: binds
B1: HOPW1-1-…2 (WIN2, AT4G31750), HA-tagged (protein, UniProt Q8RXV3 1-311)
chain: MGYLNSVLSSSSQVHSDDGPVSGGGLSQNGKFSYGYASSPGKRSSMEDFYETRIDGVEGEIVGLFGVFDGHGGARAAEYVKQNLFSNLIRHPKFISDTTAAIADAYNQTDSEFLKSENSQNRDAGSTASTAILVGDRLLVANVGDSRAVICRGGNAIAVSRDHKPDQSDERQRIEDAGGFVMWAGTWRVGGVLAVSRAFGDRLLKQYVVADPEIQEEKVDSSLEFLILASDGLWDVVSNEEAVGMIKAIEDPEEGAKRLMMEAYQRGSADNITCVVVRFFSDQAGGIGSSSTNIPIDHGIVPDRISGDSST
